According to PMC4766697:
These are yes or no findings as the source states them, for the method shown. For some assays here: In cells and extracts the contact can be indirect. Some results given as binding are weak or reduced against the parent protein; the word gives no strength.

By UniProt entry, the sequences of proteins in these tests, tags left out.
UniProt P16858: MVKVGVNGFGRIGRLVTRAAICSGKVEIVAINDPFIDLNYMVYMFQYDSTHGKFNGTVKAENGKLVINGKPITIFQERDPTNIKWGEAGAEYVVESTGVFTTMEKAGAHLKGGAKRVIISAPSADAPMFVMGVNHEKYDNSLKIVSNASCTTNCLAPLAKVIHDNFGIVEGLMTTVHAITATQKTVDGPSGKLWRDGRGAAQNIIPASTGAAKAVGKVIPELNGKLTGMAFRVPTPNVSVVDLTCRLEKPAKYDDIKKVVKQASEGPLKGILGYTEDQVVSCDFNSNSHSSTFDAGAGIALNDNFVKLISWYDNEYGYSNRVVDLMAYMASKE
UniProt P52480: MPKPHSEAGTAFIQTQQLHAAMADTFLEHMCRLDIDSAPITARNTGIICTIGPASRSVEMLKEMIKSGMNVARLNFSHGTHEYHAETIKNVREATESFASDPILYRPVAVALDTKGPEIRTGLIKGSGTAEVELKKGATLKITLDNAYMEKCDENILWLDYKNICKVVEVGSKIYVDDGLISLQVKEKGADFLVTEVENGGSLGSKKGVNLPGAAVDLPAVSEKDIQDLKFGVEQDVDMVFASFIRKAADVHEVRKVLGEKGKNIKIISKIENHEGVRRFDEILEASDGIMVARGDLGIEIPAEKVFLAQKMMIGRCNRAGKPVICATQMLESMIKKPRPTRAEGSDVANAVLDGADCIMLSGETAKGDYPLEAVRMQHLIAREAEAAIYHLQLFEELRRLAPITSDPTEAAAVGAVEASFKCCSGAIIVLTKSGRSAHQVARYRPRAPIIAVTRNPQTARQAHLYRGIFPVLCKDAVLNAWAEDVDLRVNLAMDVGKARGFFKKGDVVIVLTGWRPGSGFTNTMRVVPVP

Tests used:
[1] = molecular target: Glyceraldehyde-3-phosphate dehydrogenase (mouse (endogenous in EAC cells and mouse tissue)) (UniProt P16858); assay: co-purification; GAPDH purified from EAC cells by its enzymatic activity up to a DEAE-Sephacell column; eluent run on 7.5-15 % SDS-PAGE, bands identified by MALDI-TOF/TOF and by immunoblot
[2] = molecular target: Glyceraldehyde-3-phosphate dehydrogenase (mouse (endogenous in EAC cells and mouse tissue)) (UniProt P16858); assay: co-IP; 3MC induced mouse tumor tissue lysate in modified RIPA buffer (50 mM Tris/HCl pH 8.0, 150 mM NaCl, 1.0 % Nonidet P-40, 4 mM EDTA); primary antibody overnight at 4 °C, protein G agarose 4 h, western blot; GAPDH immunoprecipitation also in the presence of 1 mM MG

Pyruvate kinase M2 (from UniProt P52480 1-531) (enzyme)
binding [1]: binds | binding [2]: binds
